No constants are given. Whether binding was seen depends on the method and setting. Some binding calls cover weakened binding; strength is not graded here. For part of these data: Tags and fused reporters may be left off the sequences shown.

By UniProt entry, the sequences of proteins in these tests, tags left out. Residues count along the entry.
UniProt P02770, residues 25-608: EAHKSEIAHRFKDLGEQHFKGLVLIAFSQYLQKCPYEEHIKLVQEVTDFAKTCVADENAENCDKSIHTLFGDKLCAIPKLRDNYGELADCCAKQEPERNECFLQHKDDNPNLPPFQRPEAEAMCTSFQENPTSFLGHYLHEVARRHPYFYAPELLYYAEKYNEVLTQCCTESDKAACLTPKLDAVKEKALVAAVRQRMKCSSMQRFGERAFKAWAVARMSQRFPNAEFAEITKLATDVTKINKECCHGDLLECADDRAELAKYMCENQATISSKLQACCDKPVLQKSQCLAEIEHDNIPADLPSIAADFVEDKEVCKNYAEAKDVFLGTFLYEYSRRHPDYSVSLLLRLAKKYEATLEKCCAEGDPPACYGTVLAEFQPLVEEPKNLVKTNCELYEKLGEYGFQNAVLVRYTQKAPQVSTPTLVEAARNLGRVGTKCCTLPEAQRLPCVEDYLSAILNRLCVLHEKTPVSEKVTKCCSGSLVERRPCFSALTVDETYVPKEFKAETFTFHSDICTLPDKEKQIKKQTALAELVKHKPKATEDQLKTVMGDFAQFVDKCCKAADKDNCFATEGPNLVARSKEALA
UniProt P02768, residues 25-609: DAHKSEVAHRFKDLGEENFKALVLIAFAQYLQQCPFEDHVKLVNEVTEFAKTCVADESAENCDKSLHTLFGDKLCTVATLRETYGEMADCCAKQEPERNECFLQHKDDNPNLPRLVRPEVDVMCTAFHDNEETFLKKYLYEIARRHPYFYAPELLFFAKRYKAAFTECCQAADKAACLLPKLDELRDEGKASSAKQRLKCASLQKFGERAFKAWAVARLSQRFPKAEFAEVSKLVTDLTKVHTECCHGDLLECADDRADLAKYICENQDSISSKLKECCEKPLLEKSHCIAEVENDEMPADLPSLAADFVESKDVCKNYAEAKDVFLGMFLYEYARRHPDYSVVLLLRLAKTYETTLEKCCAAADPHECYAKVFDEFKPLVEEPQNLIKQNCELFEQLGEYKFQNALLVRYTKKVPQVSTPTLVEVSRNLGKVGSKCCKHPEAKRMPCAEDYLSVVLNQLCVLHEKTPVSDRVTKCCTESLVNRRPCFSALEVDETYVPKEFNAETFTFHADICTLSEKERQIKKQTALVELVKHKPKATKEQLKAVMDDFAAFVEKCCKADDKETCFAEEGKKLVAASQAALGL

One test has as its target rat albumin (rat) (UniProt P02770). Nature of the test: phage ELISA. Background: In an ELISA, binding on a coated surface is turned into a signal by an enzyme label.
As for DICLPVWGCLW [RC-R12], the binding entry is recorded as “binds”.

In the case of QRQIMDFCLPHWGCLWGDGF [RB-R10], the binding result is given as “binds”.

On to RNEDPCVVLLEMGLECWEGV [RA], for which the binding result is listed as “binds”.

As to MDDICLHHWGCLWDE [RBC-R1], the binding result is “binds”.

Consider DICLPVWGCLW [RC-R3], for which the binding entry is “binds”.

Take DICLPVWGCLW [RC-R10]: the binding result is “binds”.

Consider DICLPVWGCLW [RC-R18], for which the binding result is recorded as “binds”.

For ERQMEDFCLPQWGCLWGDGV [RB-R1], the binding entry is given as “binds”.

In the case of QRQVVDFCLPQWGCLWGDGS [RB-R14], the binding result is recorded as “binds”.

For the molecule QMQMSDFCLPQWGCLWGDGY [RB-R3], the binding entry is “binds”.

With KSRMGDFCLPEWGCLWGDEL [RB-R9], the binding entry is on record as “binds”.

Regarding QRLMWEICLPLWGCLWGDGL [RB-R5], the binding result is “binds”.

With GRQVVDFCLPKWGCLWEEGL [RB-R2], the binding result is “binds”.

WDDICFRDWGCLWGS [RBC-R7]: the binding result was “binds”.

On to DTCVDLVRLGLECWG [RD], for which the binding result is reported as “binds”.

With DICLPVWGCLW [RC-R1], the binding entry is on record as “binds”.

On to DICLPVWGCLW [RC-R2], for which the binding result was “binds”.

In another test the target is human albumin (human) (UniProt P02768). Nature of the test: phage ELISA.
For the molecule RMPASLPCYWETICYESSEQ [HB-H16], the binding result is listed as “binds”.

As to TTEMCYFPGICWKTE [HBC-H14], the binding result is “binds”.

For EHDMCYFPGICWIAD [HBC-H6], the binding result is “binds”.

As for EMCYFPGICWS [HC-H7], the binding entry was “binds”.

Take VRDMCYFPGICWKSE [HBC-H19]: the binding entry is given as “binds”.

On to KTEICYFPGICWMSG [HBC-H15], for which the binding entry is listed as “binds”.

With GRSFCMDWPAHKSCTPLML [HA-H83], the binding result is “binds”.

With EVCYFPGICWM [HC-H19], the binding entry is recorded as “binds”.

As to MEPSRSVCYAEGICFDRGEQ [HB-H8], the binding entry is listed as “binds”.

On to DICYIPGICWM [HC-H6], for which the binding result is “binds”.

As to SREVCYYPGICWNGA [HBC-H2], the binding entry is listed as “binds”.

For GGEICYFPGICRVLP [HBC-H4], the binding result was “binds”.

For KTCYFPGICWM [HC-H10], the binding entry was “binds”.

On to QTRSFCADWPRHESCKPLRG [HA-H76], for which the binding result is “binds”.

As for REPASLVCYFEDICFVRAEA [HB-H3], the binding result is “binds”.

As to KLCYFPGICWS [HC-H2], the binding result is “binds”.

In the case of ELCYFPGICWT [HB-H13], the binding result is given as “binds”.

Consider LAEMCYFPGICWMSA [HBC-H7], for which the binding result is on record as “binds”.

For the molecule ETCYFPGICWL [HC-H12], the binding entry was “binds”.

Take DMCYFPGICFN [HC-H18]: the binding result is given as “binds”.

With RAPERWVCYWEGICFDRYEQ [HB-H1], the binding entry is on record as “binds”.

Consider QTELCYFPGICWNES [HBC-H13], for which the binding entry is given as “binds”.

As for VQEVCYFPGICWMQE [HBC-H10], the binding entry is on record as “binds”.

On to EMCYFPGICWT [HC-H9], for which the binding result is reported as “binds”.

As for HAEICYFPGICWTER [HBC-H17], the binding entry is on record as “binds”.

As for ALCYFPGICWM [HC-H14], the binding entry is “binds”.

Take DLCYFPGICWM [HC-H3]: the binding result was “binds”.

Regarding DVCYFPGICWM [HC-H8], the binding result is reported as “binds”.

Regarding ASEICYFPGICWMVE [HBC-H12], the binding entry is reported as “binds”.

As for GMCYFPGICWA [HC-H4], the binding result is “binds”.

SYAPCYFPGICWMGN [HBC-H8]: the binding entry is on record as “binds”.

Take EICYFPGICWM [HC-H17]: the binding entry was “binds”.

Regarding LVPERIVCYFESICYERSEL [HB-H4], the binding result was “binds”.

On to RGPDVCYWPSICFERSMP [HB-H6], for which the binding result is recorded as “binds”.

For GTEVCYFPGICWGGG [HBC-H3], the binding result is “binds”.

Turning to EVCYFPGICWE [HC-H16], the binding entry is “binds”.

On to ELCYFPGICWM [HC-H20], for which the binding result is given as “binds”.

For EVCYFPGICWF [HC-H11], the binding entry is listed as “binds”.

In the case of ELCYFPGICWP [HC-H15], the binding result is “binds”.

Regarding RDTVCYFPGICWMAS [HBC-H18], the binding result was “binds”.

As for IVEMCYYPGICWISP [HB-H10], the binding entry is “binds”.

For KVCYFPGICWM [HC-H5], the binding result is on record as “binds”.

With EICYFPGICWI [HB-H12], the binding result is listed as “binds”.

For the molecule DMCYFPGICWL [HC-H13], the binding result is given as “binds”.

As to NDEICYFPGVCWKSG [HBC-H11], the binding entry is reported as “binds”.

On to DSEVCYFPGICWSGT [HBC-H1], for which the binding entry is recorded as “binds”.

Take SGAICYVPGICWTHA [HB-H7]: the binding result is listed as “binds”.

On to GVRTFCQDWPAHNSCKLLRG [HA-H73], for which the binding entry was “binds”.

In the case of RTAESLVCYWPGICFAQSER [HB-H18], the binding entry was “binds”.

(Values after patent US20040253247A1.)
